In paper PMC5584982:
These are yes or no findings as the source states them, for the method shown. Binding seen in cells or lysates may run through a third protein. Here binding means that the protein was enriched with, or labelled near, the bait; the list need not be complete.

Chains of the proteins cited; added tags and fusions are not shown. Lines headed by an entry give the natural chain unless they say otherwise; changes in a name come on top.
UniProt Q57Z59: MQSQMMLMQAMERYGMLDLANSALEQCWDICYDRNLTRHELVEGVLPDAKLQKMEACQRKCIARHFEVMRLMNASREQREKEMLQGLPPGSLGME
UniProt Q389I9: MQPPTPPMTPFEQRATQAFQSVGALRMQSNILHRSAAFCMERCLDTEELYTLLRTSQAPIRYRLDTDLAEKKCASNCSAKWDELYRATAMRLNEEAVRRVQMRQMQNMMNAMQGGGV
UniProt Q585K7: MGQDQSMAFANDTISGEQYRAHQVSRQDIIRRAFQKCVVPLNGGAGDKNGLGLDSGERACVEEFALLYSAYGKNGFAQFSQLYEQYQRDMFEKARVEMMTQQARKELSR

Assays:
[1] = molecular target: TbTim11-HA (T. brucei) (UniProt Q57Z59); assay: affinity purification with mass spectrometry; SILAC (induced versus uninduced cells mixed); soluble IMS fraction after 0.2% digitonin; anti-HA immunoprecipitation, quantitative MS, three biological replicates
[2] = molecular target: TbTim13-HA (T. brucei) (UniProt Q389I9); assay: as above

TbTim12 (endogenous) (from UniProt Q585K7)
binding [1]: binds
binding [2]: binds
